Taken from: PubChem BioAssay AID1259308 (NCATS, 2017)
The whole screen tested about 59,000 reagents; below is a random part of them. About 1,510 of them (2.6%) count as active. 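Calls use total luciferase alone and ignore viability, so some active siRNAs may act by altering cell number.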 The numbers tell different reagents against one gene apart. Not all columns of the deposit are shown.

Purpose: 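Candidate targets for better recombinant protein yield in mammalian cells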 (primary screen)
System: human HEK293 embryonic kidney cells stably expressing firefly luciferase (HEK-CMV-Luc2-Hygro)
Reagent: single siRNA against human genes, 0.8 pmol siRNA per well
Duration: 72 h
Measured: 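Reporter luminescence and viable-cell signal on separate replicate plates, given as percent of non-targeting control and median/MAD z-scores, plus per-cell luciferase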
Reading the numbers: total luciferase, z-score: higher = more reporter protein produced
Call rule: 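An siRNA counts as active if its total luciferase robust z-score exceeds 3; genes with two or more such siRNAs out of three were retested with fresh siRNAs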
Calls: active = raised luciferase; inactive = no rise

total luciferase, z-score, by gene and reagent
BLOC1S6 (biogenesis of lysosomal organelles complex 1 subunit 6): #1 0.607 inactive; #2 -0.54 inactive; #3 1.44 inactive
R3HDML (R3H domain containing like): #1 0.136 inactive; #2 0.164 inactive; #3 1.43 inactive
SF3B1 (splicing factor 3b subunit 1): #1 -0.657 inactive; #2 2.38 inactive; #3 2.14 inactive
P2RX6 (purinergic receptor P2X 6): #1 -0.0451 inactive; #2 0.615 inactive; #3 -0.33 inactive
AKAP10 (A-kinase anchoring protein 10): #1 1.45 inactive; #2 0.0777 inactive; #3 -0.333 inactive

3 entries from above, arranged by “total luciferase, z-score”, lowest first.
gene	reagent no.	total luciferase, z-score	Outcome
R3HDML (R3H domain containing like)	1	0.136	inactive
R3HDML (R3H domain containing like)	2	0.164	inactive
R3HDML (R3H domain containing like)	3	1.43	inactive

Additional reagents follow:
total luciferase, z-score, by gene and reagent
RANBP1P1 (RANBP1 pseudogene 1): #1 -2.06 inactive; #2 0.799 inactive; #3 -0.426 inactive
MTFMT (mitochondrial methionyl-tRNA formyltransferase): #1 0.304 inactive; #2 -1.2 inactive; #3 -0.0132 inactive
PRAP1 (proline rich acidic protein 1): #1 0.24 inactive; #2 0.59 inactive; #3 2.43 inactive
SKA1 (spindle and kinetochore associated complex subunit 1): #1 1.17 inactive; #2 -1.79 inactive; #3 -0.316 inactive
USP47 (ubiquitin specific peptidase 47): #1 -1.91 inactive; #2 0.0604 inactive; #3 1.78 inactive
TSGA10 (testis specific 10): #1 -0.147 inactive; #2 -0.718 inactive; #3 -0.902 inactive
PHACTR3 (phosphatase and actin regulator 3): #1 1.08 inactive; #2 1.1 inactive; #3 0.58 inactive
UBE2D2 (ubiquitin conjugating enzyme E2 D2): #1 -0.358 inactive; #2 0.231 inactive; #3 1.94 inactive
